PubChem BioAssay AID504847 (National Center for Advancing Translational Sciences (NCATS), 2011)
Among all 400,000 compounds or so, about 3,700 (0.93%) were called active. The shares of active, inactive and inconclusive entries below differ from those in the screen. The call rests on the fitted dose curve; in most records, active means well fitted inhibition curve with a large enough effect; inconclusive means small, poorly fitted or top-dose-only effect, or another doubt; inactive means no such curve, though single readings can be large or run the other way. Potencies beside an inconclusive call are fits to weak or partial responses and may not hold up.

Sequences of proteins named here, by UniProt entry; tags and fusion partners are left off. A change or cut given only in a name is not applied to a line headed by its entry.
UniProt P11473: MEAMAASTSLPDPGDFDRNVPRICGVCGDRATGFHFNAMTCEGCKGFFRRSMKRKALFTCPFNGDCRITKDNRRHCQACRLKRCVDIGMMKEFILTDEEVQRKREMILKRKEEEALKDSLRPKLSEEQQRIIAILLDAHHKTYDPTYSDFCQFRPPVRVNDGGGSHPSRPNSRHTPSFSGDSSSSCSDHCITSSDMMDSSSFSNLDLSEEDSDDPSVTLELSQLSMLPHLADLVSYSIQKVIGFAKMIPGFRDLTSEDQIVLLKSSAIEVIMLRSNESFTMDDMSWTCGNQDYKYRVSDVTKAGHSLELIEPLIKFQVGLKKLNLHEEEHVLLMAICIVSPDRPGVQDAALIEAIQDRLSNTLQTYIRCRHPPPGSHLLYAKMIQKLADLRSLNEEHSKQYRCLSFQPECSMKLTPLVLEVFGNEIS

Each compound was assayed against Vitamin D3 receptor (Homo sapiens) (UniProt P11473) (assay: Inhibitors of the vitamin D receptor (VDR): qHTS). Details: VDR-SRC2-3 peptide fluorescence polarization, 2 h; max response, negative = inhibition: hits give low values.
Summary of the method: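 Fluorescence polarization assay measuring small-molecule disruption of VDR binding to the coregulator peptide SRC2-3. Compounds were pin-transferred (23 nl) into the reagent mix and incubated 2 h at room temperature before reading.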
On the % scale 0 is the no-effect control and ±100 the full control effect; potency means the concentration at half of the fitted maximal effect.

Potency, active:
Cc1ccc2c(c1)C(=C(C#N)C#N)C(=O)N2CCN1CCOCC1 79.4 µM
COC(=O)C1=C(C(=O)OC)C(c2ccc(OC)c(OC)c2)c2sc(=O)[nH]c2S1 (stereo not given) 79.4 µM
COc1ccc(OC)c(-c2c3cc(O)c(=O)cc-3oc3cc(O)c(O)cc23)c1 25.1 µM
COc1ccc(Br)cc1CNc1ccc(O)cc1 25.1 µM
CCOC(=O)C1(CCOC)CCN(Cc2cc3ccccc3s2)CC1 44.7 µM
CCn1c(=S)[nH]c2c(=O)n(C)c(=O)n(C)c21 50.1 µM

Potency, inconclusive:
CCOP(=O)(OCC)/C(C#N)=C/c1ccc([N+](=O)[O-])cc1 89.1 µM [inhibitor, partial curve, poor fit]
O=C(NCCc1ccccc1)c1ccc(CSc2nc3ccncc3n2Cc2ccccc2F)cc1 89.1 µM [inhibitor, single point]
CN(CCc1ccccn1)C(=O)CCC1CCCN(C(=O)c2c3c(nn2C)CCCC3)C1 (stereo not given) 31.6 µM [inhibitor, single point]
O=C(c1csnn1)N1CCC[C@@]2(CCN(Cc3cc(C(F)(F)F)cc(C(F)(F)F)c3)C2)C1 89.1 µM [inhibitor, single point]
O=C(Nc1ccon1)Nc1ccccc1C(F)(F)F 100 µM [inhibitor, single point]
CC(=NNC(=S)N1CCN(c2ccccn2)CC1)c1ccccn1 79.4 µM [inhibitor, partial curve, poor fit]
CCCCCCN(C(=O)CCl)c1ccccc1 70.8 µM [inhibitor, partial curve, poor fit]
CCCCC/C=C/C1=CC(=O)C[C@H](c2ccc(Cl)cc2)C1 63.1 µM [inhibitor, partial curve, poor fit]
CCCCCCCCN1[C@@H](CC(=O)OC)c2cc(F)ccc2S1(=O)=O 39.8 µM [inhibitor, partial curve, poor fit]
CC[C@]1(C(=O)OC)[C@H]2C(=O)N(Cc3ccccc3)C(=O)[C@H]2[C@H]2CN=C(SCC(=O)c3ccccc3)N21 70.8 µM [inhibitor, single point]
CCOc1ccc2nc(SCC(=O)N(CC(C)C)c3c(N)n(CC(C)C)c(=O)[nH]c3=O)[nH]c2c1 79.4 µM [inhibitor, single point]
CC(=O)n1c(=O)c2ccccc2c(=O)n1-c1ccccc1 56.2 µM [inhibitor, single point]
COCOc1cc(O)c(C(=O)/C=C/c2ccccc2)c(OCOC)c1 50.1 µM [inhibitor, partial curve, poor fit]
CC(=O)N1c2ccc(S(=O)(=O)N3CCCCC3)cc2CC1C(=O)Nc1ccc(F)cc1C (stereo not given) 22.4 µM [inhibitor, partial curve, poor fit]
COc1cc(O)c(C(=O)/C=C/c2ccc(O)c(OC)c2)c(OC)c1 39.8 µM [inhibitor, partial curve, poor fit]
C=C1C(=O)[C@@]23[C@H](O)C[C@@H]4C(C)(C)CC[C@H](O)[C@@]4(C)[C@@H]2CC[C@@H]1[C@H]3O 56.2 µM [inhibitor, partial curve, poor fit]
O=C(O)c1cnn(-c2nc(-c3ccc(Cl)c(Cl)c3)cs2)c1C(F)(F)F 89.1 µM [inhibitor, single point]
O=C(CSc1nc2ccccc2s1)NCc1cc([N+](=O)[O-])ccc1O 44.7 µM [inhibitor, partial curve, poor fit]
CN(C)C(=O)c1ccc(-c2nc(N(C)Cc3ccco3)c3ccccc3n2)cc1 50.1 µM [inhibitor, partial curve]
Cn1c(=O)c(NCCc2ccccc2)c2c3c(cccc31)C(=O)c1ccccc1-2 89.1 µM [inhibitor, single point]
O=C(CSc1nnc(C2COc3ccccc3O2)o1)N1CCCC1 (stereo not given) 89.1 µM [inhibitor, partial curve, poor fit]
O=c1c(Cl)c(Cl)cnn1Cc1nnc(-c2ccc(Cl)cc2)o1 22.4 µM [inhibitor, full curve]
CCSC1(SCC)N=C(N)C2(C#N)C(c3ccc(OC)c(OC)c3OC)C12C#N (stereo not given) 112 µM [inhibitor, partial curve, poor fit]
Cc1ccccc1OCC(=O)Nc1ccc(N2CCN(C(=O)C(C)C)CC2)c(Cl)c1 100 µM [inhibitor, single point]
O=C(O)c1cccc(S(=O)(=O)Nc2ccc(O)cc2Sc2nc3ccccc3s2)c1 28.2 µM [inhibitor, full curve, poor fit]
CC(=O)N1CCN(c2ccc(N)cc2)CC1 39.8 µM [inhibitor, partial curve, poor fit]
CC(C)C[C@@H](CNCC(=O)[C@H](CC(C)C)NC(=O)c1[nH]cnc1C(=O)N[C@H](CN)CC(C)C)NC(=O)c1nc[nH]c1C(=O)N[C@@H](CC(=O)O)C(=O)O 22.4 µM [inhibitor, partial curve, poor fit]
CCOC(=O)CCCc1ccc(/C(C)=N/NC(N)=S)cc1 100 µM [inhibitor, single point]
COC(=O)CCC(=O)OC1(C)C(=O)C=C2C=C(C3CC3)N(CCCOC(C)C)C=C2C1=O (stereo not given) 79.4 µM [inhibitor, partial curve, poor fit]
O=C(Cc1nc2ccccc2[nH]1)c1ccc([N+](=O)[O-])cc1 100 µM [inhibitor, single point]
Cc1oc(=O)oc1CN1CCN(c2cc3c(cc2F)c(=O)c(C(=O)O)c2n3C(C)S2)CC1 (stereo not given) 50.1 µM [inhibitor, partial curve]
COc1ccc(C(=O)NCc2ccc3c(c2)OCO3)c(OC)c1 70.8 µM [inhibitor, single point]
CCCCc1nnc(NC(=O)C2CCN(c3ncnc4sc(C)c(C)c34)CC2)s1 89.1 µM [inhibitor, single point]
CC(=O)Nc1ccc(Nc2nc(C)c([N+](=O)[O-])c(Nc3ccccc3)n2)cc1 89.1 µM [inhibitor, partial curve, poor fit]
CCN1C(=O)/C(=C/c2nc3ccccc3c(=O)n2-c2ccccc2)c2ccccc21 100 µM [inhibitor, single point]
CN1CCN(c2ncc3nc(-c4cccs4)c(=O)n(Cc4cccs4)c3n2)CC1 89.1 µM [inhibitor, single point]
COc1ccc2cc(C(=O)C3CCCN(C(=O)c4cnn(C(C)C)c4)C3)ccc2c1 (stereo not given) 39.8 µM [inhibitor, single point]
CCN(C(=O)c1cc2c(C)nc3ccccc3c2o1)c1cc(Cl)ccc1OC 44.7 µM [inhibitor, partial curve, poor fit]
Cc1noc(C)c1-c1ccc2ncnc(N(C)Cc3ccco3)c2c1 50.1 µM [inhibitor, partial curve]
COc1ccccc1CN1CC[C@@]2(CCCN(C(=O)c3cnccn3)C2)C1 44.7 µM [inhibitor, partial curve, poor fit]

Arranged by molecular weight (rising): 4 of the compounds above.
Potency, inconclusive:
O=C(CSc1nc2ccccc2s1)NCc1cc([N+](=O)[O-])ccc1O 44.7 µM [inhibitor, partial curve, poor fit]
CCN1C(=O)/C(=C/c2nc3ccccc3c(=O)n2-c2ccccc2)c2ccccc21 100 µM [inhibitor, single point]
O=C(O)c1cnn(-c2nc(-c3ccc(Cl)c(Cl)c3)cs2)c1C(F)(F)F 89.1 µM [inhibitor, single point]
CCSC1(SCC)N=C(N)C2(C#N)C(c3ccc(OC)c(OC)c3OC)C12C#N (stereo not given) 112 µM [inhibitor, partial curve, poor fit]

Next part.

Max response, negative = inhibition, inactive:
O=C1c2ccccc2NC(c2ccc(-c3ccc(Br)cc3)o2)N1O (stereo not given) 4.88%
Cn1c(N)c(S(=O)(=O)NCc2ccc(F)cc2)c(=O)n(C)c1=O 0.273%
Cc1coc2c1c(C)cc1oc(=O)c(CC(=O)N[C@@H](CC(C)C)C(=O)O)c(C)c12 31%
CCc1ccc(-c2nnn(CCC#N)n2)cc1 -2.62%
CCc1nnc(NC(=O)CSc2nccn2-c2cccc(C)c2C)s1 14.2%
Cc1cc(N2CCN(C)CC2)ccc1NC(=O)c1c2c(nc3ccccc13)CCN(Cc1ccccc1)C2 13.8%
O=c1cc(-c2ccccc2)oc2ccccc12 2.67%
COc1ccc(OCC(=O)OCC(=O)Nc2ccc3[nH]c(=O)[nH]c3c2)cc1 -2.04%
O=c1cc(CN2CC(O)Cc3ccc4ccccc4c32)nc2sccn12 (stereo not given) -2.36%
Cc1noc(C)c1-c1nccc(NCCN2CCOCC2)n1 -6.4%
Cc1ccc(-c2nc(CS(=O)(=O)CC(=O)NC3CCCCCC3)c(C)o2)cc1 0.338%
CC(NC(=O)COc1cccc(Br)c1)C(=O)O (stereo not given) -11.2%
O=C(Cc1ccccn1)c1ccc(Cl)cc1 -8.53%
Cc1ccc(-c2nnn3c2nc(NCC(C)c2ccccc2)c2ccccc23)cc1 (stereo not given) -2.35%
O=C(NCc1ccccc1)C(=O)Nc1ccc2nc3n(c(=O)c2c1)CCCCC3 9.52%
O=C(COC(=O)c1ccc(Cl)nc1)Nc1ccc(S(=O)(=O)N2CCCC2)cc1 25.2%
CCOC(=O)C(O)(NC(=O)c1cccnc1)C(F)(F)F (stereo not given) 3.17%
COc1cccc(CS(=O)(=O)c2nnnn2-c2ccc(F)cc2Br)c1 0.71%
COc1ccc(OC)c(S(=O)(=O)Nc2c(C)n(C)n(-c3ccccc3)c2=O)c1 -17.1%
